From the supplement of paper PMC4635364 come the findings set out here.

Where a name gives a salt, the structure may show the parent alone. The list shows a part of the results. Single values are uncertain here, since repeats match poorly.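 ReNCell VM, a human fetal ventral-midbrain neural progenitor line, was differentiated without mitogens. Blinded raters scored images stained for doublecortin (early neurons) or tyrosine hydroxylase (dopaminergic neurons) against untreated wells (0 = no change). Scores were averaged across repeats and both raters, and compounds averaging 2 or more were selected as hits for retesting.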

Assay [1] deals with ReNCell VM. Kind of assay: neuronal differentiation score (DCX+ cell fraction vs untreated, manual image score) (score (-3 to 3)); higher = more neuronal differentiation. As to conditions: 2 uM, 2 weeks.
For assay [2], the system named is ReNCell VM. Description: dopaminergic neuron differentiation score (TH+ cell fraction vs untreated, manual image score) (score (0 to 3)); higher = more TH+ dopaminergic neuron differentiation. As to conditions: 2 uM, 4 weeks, BDNF 10 ng/ml + GDNF 10 ng/ml.

With `CCOC(=O)c1ccc(N)cc1`, the neuronal differentiation score with ReNCell VM [1] (library: Spectrum) was inactive: 0. The “dopaminergic neuron differentiation score” value in the assay with ReNCell VM [2] (library: Spectrum) is inactive: 0.

In the case of `CN(C)CCOC(c1ccccc1)c1ccccc1.Cn1c(=O)c2[nH]c(Cl)nc2n(C)c1=O`, the neuronal differentiation score in the assay with ReNCell VM [1] (library: Spectrum) was inactive: 1. Also, in the assay on ReNCell VM [2] (library: Spectrum), the “dopaminergic neuron differentiation score” value is inactive: 0.

As to `Nc1c(S(=O)(=O)O)cc(Nc2cccc3ccccc23)c2c1C(=O)c1ccccc1C2=O`, the neuronal differentiation score in the assay on ReNCell VM [1] (library: Tocriscreen) is inactive: 0. Also, the “dopaminergic neuron differentiation score” value with ReNCell VM [2] (library: Tocriscreen) was inactive: 1.

In the case of `O=C(O)c1cc(=O)c(O)c(C(=O)O)o1` [Meconic acid], the neuronal differentiation score in the assay on ReNCell VM [1] (library: Phytochemical) was inactive: 0. Moreover, the “dopaminergic neuron differentiation score” value with ReNCell VM [2] (library: Phytochemical) is inactive: 0.

As to `Cc1cc(Cn2cnc3c2CC(C(=O)O)N(C(=O)C(c2ccccc2)c2ccccc2)C3)ccc1N(C)C` (stereo unspecified), the neuronal differentiation score in the assay with ReNCell VM [1] (library: Tocriscreen) is inactive: 0. Moreover, the “dopaminergic neuron differentiation score” value with ReNCell VM [2] (library: Tocriscreen) is inactive: 0.

Consider `O=C(O)c1cc(O)c(=O)c2c(O)c(O)ccc2c1`, for which, in the assay on ReNCell VM [1] (library: Spectrum), the neuronal differentiation score is inactive: 0. Also, in the assay on ReNCell VM [2] (library: Spectrum), the “dopaminergic neuron differentiation score” value was inactive: 0.

In the case of `OCc1c[nH]c2ccccc12`, in the assay on ReNCell VM [1] (library: Spectrum), the neuronal differentiation score is inactive: 0. Moreover, the “dopaminergic neuron differentiation score” value with ReNCell VM [2] (library: Spectrum) is inactive: 0.

As to `Oc1cc(O)c2c(c1)O[C@H](c1cc(O)c(O)c(O)c1)[C@H](O)C2`, the neuronal differentiation score with ReNCell VM [1] (library: Spectrum) was inactive: 0. The “dopaminergic neuron differentiation score” value with ReNCell VM [2] (library: Spectrum) was inactive: 0.

Regarding `COc1ccc2cc(C(C)C(=O)O)ccc2c1` (stereo unspecified), in the assay with ReNCell VM [1] (library: Spectrum), the neuronal differentiation score is inactive: -1. In addition, the “dopaminergic neuron differentiation score” value with ReNCell VM [2] (library: Spectrum) is inactive: 0.

Consider `CCN(CC)CCCC(C)Nc1c2ccc(Cl)cc2nc2ccc(OC)cc12` (stereo unspecified) [Quinacrine dihydrochloride dihydrate], for which the neuronal differentiation score with ReNCell VM [1] (library: Prestwick) is inactive: 0. The “dopaminergic neuron differentiation score” value in the assay with ReNCell VM [2] (library: Prestwick) is inactive: 0.

With `COc1cccc(-c2cc(=O)c3ccc(OC)cc3o2)c1`, the neuronal differentiation score with ReNCell VM [1] (library: Spectrum) was inactive: 0. In the assay on ReNCell VM [2] (library: Spectrum), the “dopaminergic neuron differentiation score” value was inactive: 0.

Consider `Cc1c(Nc2ncccc2C(=O)O)cccc1C(F)(F)F` [Flunixin meglumine], for which, in the assay on ReNCell VM [1] (library: Prestwick), the neuronal differentiation score was active: 2. In addition, the “dopaminergic neuron differentiation score” value in the assay with ReNCell VM [2] (library: Prestwick) was inactive: 0.

Turning to `CC[C@H](CO)Nc1nc(NCc2ccccc2)c2ncn(C(C)C)c2n1` [Roscovitine], the neuronal differentiation score in the assay with ReNCell VM [1] (library: LOPAC) is inactive: 1. The “dopaminergic neuron differentiation score” value in the assay on ReNCell VM [2] (library: LOPAC) is inactive: 0.

Take `C[N+](C)(C)CC(=O)O` [Betaine hydrochloride]: the neuronal differentiation score in the assay on ReNCell VM [1] (library: LOPAC) was inactive: 0. The “dopaminergic neuron differentiation score” value in the assay on ReNCell VM [2] (library: LOPAC) was inactive: 0.

For the molecule `COc1ccc(C(=O)NCc2ccc(OCCN(C)C)cc2)cc1OC`, in the assay with ReNCell VM [1] (library: Spectrum), the neuronal differentiation score was inactive: 0. In addition, the “dopaminergic neuron differentiation score” value in the assay with ReNCell VM [2] (library: Spectrum) was inactive: 0.

Take `CC(C(=O)O)c1ccc2c(c1)[nH]c1ccc(Cl)cc12` (stereo unspecified): the neuronal differentiation score with ReNCell VM [1] (library: Spectrum) was inactive: 0. Moreover, the “dopaminergic neuron differentiation score” value in the assay on ReNCell VM [2] (library: Spectrum) is inactive: 0.

For the molecule `COC(=O)C1=C(C)NC(C)=C(C(=O)OCCCN2CCC(c3ccccc3)(c3ccccc3)CC2)[C@@H]1c1cccc([N+](=O)[O-])c1` [(R)-(-)-Niguldipine hydrochloride], the neuronal differentiation score in the assay on ReNCell VM [1] (library: Tocriscreen) is inactive: 0. In addition, the “dopaminergic neuron differentiation score” value in the assay with ReNCell VM [2] (library: Tocriscreen) was inactive: 0.

Take `O=C(Oc1cc(O)cc2c1C[C@@H](OC(=O)c1cc(O)c(O)c(O)c1)[C@@H](c1cc(O)c(O)c(O)c1)O2)c1cc(O)c(O)c(O)c1`: the neuronal differentiation score in the assay with ReNCell VM [1] (library: Spectrum) is inactive: -1. In the assay with ReNCell VM [2] (library: Spectrum), the “dopaminergic neuron differentiation score” value is inactive: 0.

Turning to `CC1=C(CCC(=O)O)c2cc3[nH]c(cc4nc(cc5[nH]c(cc1n2)c(C)c5C(C)O)C(C)=C4C(C)O)c(C)c3CCC(=O)O` (stereo unspecified), in the assay on ReNCell VM [1] (library: Spectrum), the neuronal differentiation score is inactive: 0. The “dopaminergic neuron differentiation score” value in the assay with ReNCell VM [2] (library: Spectrum) is inactive: 0.

Take `CCCCc1nc(Cl)c(CO)n1Cc1ccc(-c2ccccc2-c2nnn[nH]2)cc1`: in the assay on ReNCell VM [1] (library: Spectrum), the neuronal differentiation score is inactive: 0. Moreover, in the assay on ReNCell VM [2] (library: Spectrum), the “dopaminergic neuron differentiation score” value was inactive: 0.

With `OCC1OC(n2cnc3c(NCCc4ccccc4)ncnc32)C(O)C1O` (stereo unspecified) [N6-2-Phenylethyladenosine], the neuronal differentiation score with ReNCell VM [1] (library: LOPAC) is inactive: 0. Further, in the assay on ReNCell VM [2] (library: LOPAC), the “dopaminergic neuron differentiation score” value is inactive: 0.

Regarding `Nc1ccccc1S(N)(=O)=O` [2-Aminobenzenesulfonamide], the neuronal differentiation score in the assay with ReNCell VM [1] (library: Prestwick) is inactive: 1. Also, the “dopaminergic neuron differentiation score” value with ReNCell VM [2] (library: Prestwick) was inactive: 0.

Take `CCN(CC)C(=O)N1CCN(C)CC1`: the neuronal differentiation score in the assay on ReNCell VM [1] (library: Spectrum) is inactive: 1. For the same molecule, the “dopaminergic neuron differentiation score” value in the assay with ReNCell VM [2] (library: Spectrum) is inactive: 0.

For `C[N+](C)(CCOc1ccccc1)Cc1ccccc1.O=C([O-])c1cc2ccccc2cc1O` [Bephenium hydroxynaphthoate], in the assay with ReNCell VM [1] (library: Prestwick), the neuronal differentiation score is inactive: 0. Also, the “dopaminergic neuron differentiation score” value in the assay with ReNCell VM [2] (library: Prestwick) is inactive: 0.

For `N[C@@H](Cc1c[nH]c2ccccc12)C(=O)O`, in the assay with ReNCell VM [1] (library: Spectrum), the neuronal differentiation score was inactive: 0. The “dopaminergic neuron differentiation score” value in the assay on ReNCell VM [2] (library: Spectrum) was inactive: 0.

As for `C[C@H]1[C@H](C)CC[C@]2(C(=O)O[C@@H]3O[C@H](CO[C@@H]4O[C@H](CO)[C@@H](O[C@@H]5O[C@H](C)[C@H](O)[C@@H](O)[C@H]5O)[C@H](O)[C@H]4O)[C@@H](O)[C@H](O)[C@H]3O)CC[C@]3(C)C(=CC[C@@H]4[C@@]5(C)C[C@@H](O)[C@H](O)[C@@](C)(CO)[C@@H]5CC[C@]43C)[C@H]12` [Asiaticoside], the neuronal differentiation score in the assay on ReNCell VM [1] (library: Phytochemical) was inactive: -1. For the same molecule, the “dopaminergic neuron differentiation score” value with ReNCell VM [2] (library: Phytochemical) was inactive: 0.

On to `CC(C)(Oc1ccc(Cl)cc1)C(=O)O`, for which the neuronal differentiation score in the assay on ReNCell VM [1] (library: Spectrum) is inactive: 0. Further, the “dopaminergic neuron differentiation score” value in the assay on ReNCell VM [2] (library: Spectrum) is inactive: 0.

Take `Nc1nccs1`: the neuronal differentiation score in the assay with ReNCell VM [1] (library: Spectrum) was inactive: 0. Also, in the assay with ReNCell VM [2] (library: Spectrum), the “dopaminergic neuron differentiation score” value is inactive: 0.
